PubChem BioAssay AID1508597, Cure First, 2020

- Assay: 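Knock-downs altering ovarian cancer cell survival with or without PARP inhibitor rucaparib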 (primary screen)
- Cell system: human ovarian carcinoma lines grown from tumours: OCI-P5x (papillary serous) and OCI-C5x (clear cell)
- Reagent: siRNA pool against human genes, 1.25 pmol siRNA per well
- Duration: 72 h or 96 h, depending on the cell culture
- Treatment: rucaparib 20 µM (about IC30) or vehicle, present until read-out
- Rucaparib or vehicle: Rucaparib
- Cell line: OCI-C5x (clear cell)
- Detection: 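ATP luminescence measured at 72 or 96 h according to the culture, then normalised and expressed as percent viability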
- Reading the numbers: viability, normalised: higher = more viable cells remaining
- Rule for the call: 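a well counts as a hit if its normalised viability is under 80 percent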
- Calls: active = viability under 80%; inactive = viability 80% or more
Shown is an unselected part of the about 2,100 reagents, under one of the conditions tested. 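Calls flag viability under 80% in either arm, not effects specific to rucaparib; the reference for percent is not stated.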 Unmarked entries are inactive. A reagent listed more than once was tested more than once; the source does not tell the runs apart. The record does not give: the 100% reference.

no.	gene knocked down	technical replicate	viability, normalised (%)
1	SERPINE2	1	55.1 (active)
2	SERPINE2	2	45.8 (active)
3	SERPINE2	3	50.6 (active)
4	PRKAA1	1	64.1 (active)
5	PRKAA1	2	54.8 (active)
6	PRKAA1	3	43.8 (active)
7	SUPT7L	1	55.7 (active)
8	SUPT7L	2	44.6 (active)
9	SUPT7L	3	44.5 (active)
10	CHMP4B	1	78.9 (active)
11	CHMP4B	2	95.1
12	CHMP4B	3	80
13	CRAMP1	1	57.9 (active)
14	CRAMP1	2	65.9 (active)
15	CRAMP1	3	38 (active)
16	NEIL1	1	46.1 (active)
17	NEIL1	1	36.2 (active)
18	NEIL1	2	67.9 (active)
19	NEIL1	2	60.4 (active)
20	NEIL1	3	48.7 (active)
21	NEIL1	3	84.7
22	MYOCD	1	40.4 (active)
23	MYOCD	2	32 (active)
24	MYOCD	3	36.4 (active)

Taken from above:
CRAMP1, technical replicate 1, viability, normalised (%): 57.9 (active)
SERPINE2, technical replicate 3, viability, normalised (%): 50.6 (active)
MYOCD, technical replicate 2, viability, normalised (%) = 32 (active)
